PubChem BioAssay AID1259327 – Drosophila RNAi Screening Center, 2017

Assay: 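Knock-downs altering cellular ATP with no metal added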
System: Drosophila S2R+ cells
Reagent: long dsRNA against Drosophila genes
Duration: 5 days (water added on day 4, read one day later)
Challenge: water added as vehicle, no metal, one day before read-out
Read-out: 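Total ATP measured by luciferase light, scaled to plate mean, duplicates averaged, then z-scored across plates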
Direction: ATP z-score: higher = more total ATP than typical wells; ATP luminescence: higher = more total ATP
Active means: 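a hit is any knock-down whose absolute ATP z-score is greater than 1.5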
Meaning of the calls: active = hit: ATP up or down; inactive = no clear ATP change
The whole screen tested about 3,100 reagents; this is a part drawn at random. 378 of all reagents (12%) count as active. 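Hits include both directions; z-score sign shows ATP rise or fall; raw luminescence values are not plate-normalised.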 Unmarked entries are inactive. A plus sign joins genes that one reagent is predicted to hit. The record does not give: the amount of reagent.

gene knocked down	amplicon	ATP z-score, duplicate mean	ATP luminescence, replicate 1 (RLU)	ATP luminescence, replicate 2 (RLU)
CG5348	DRSC06933	0.167	6.64e5	6.05e5
CG5348	DRSC39672	-1.86 (active)	3.14e5	3.64e5
Or69a	DRSC11243	-0.392	8.49e5	8.40e5
Or69a	DRSC25967	0.0852	8.19e5	9.03e5
Oatp58Da	DRSC04365	-0.575	6.53e5	6.77e5
Oatp58Da	DRSC25499	0.867	9.63e5	9.53e5
CG11353	DRSC08182	0.201	6.66e5	8.42e5
CG11353	DRSC39681	-2.03 (active)	3.22e5	3.34e5
stas	DRSC20104	-1.06	5.82e5	6.11e5
ru	DRSC08258	-0.509	4.81e5	6.67e5
ru	DRSC28529	-0.0757	8.84e5	7.50e5
Agpat2	DRSC03532	-0.128	5.35e5	4.00e5
Agpat2	DRSC27901	0.854	8.43e5	9.23e5
CG8249	DRSC07125	0.829	6.64e5	7.25e5
CG8249	DRSC39776	-0.892	3.89e5	4.46e5
Or67c	DRSC11242	-0.311	9.11e5	8.02e5
Or67c	DRSC39762	-1	3.28e5	4.96e5
dmGlut	DRSC02835	-1.51 (active)	3.43e5	4.05e5
dmGlut	DRSC25891	-1.16	7.09e5	7.03e5
SsRbeta	DRSC11290	0.468	7.06e5	8.58e5
kon	DRSC02033	0.847	4.61e5	6.21e5
kon	DRSC39622	-1.1	3.69e5	4.13e5
sut4	DRSC07703	0.691	7.16e5	8.96e5
sut4	DRSC24885	0.707	8.78e5	9.99e5
Inx7	DRSC18784	-0.468	7.99e5	7.25e5
Inx7	DRSC24113	2.27 (active)	1.15e6	1.11e6
Scgdelta	DRSC18544	-0.556	5.80e5	6.74e5
Cralbp + PGRP-LD + Pmi	DRSC09743	0.0545	9.59e5	9.98e5
rtet	DRSC14160	0.116	7.23e5	7.12e5
rtet	DRSC39843	1.51 (active)	5.36e5	6.36e5
CG9458	DRSC16495	2.06 (active)	3.96e5	9.73e5
Or42a	DRSC04912	-0.965	5.43e5	5.21e5
CG8837	DRSC00711	0.136	7.70e5	6.71e5
CG8837	DRSC29440	0.093	8.78e5	7.94e5
PIG-B	DRSC22598	1.27	7.21e5	6.53e5
PIG-B	DRSC39659	1.14	4.98e5	5.88e5
Nup93-1	DRSC19344	0.589	7.80e5	7.53e5
Nup93-1	DRSC39780	1.35	5.54e5	5.93e5

5 neighbouring entries from above:
gene knocked down	amplicon	ATP z-score, duplicate mean	ATP luminescence, replicate 1 (RLU)	ATP luminescence, replicate 2 (RLU)
Or69a	DRSC25967	0.0852	8.19e5	9.03e5
Oatp58Da	DRSC04365	-0.575	6.53e5	6.77e5
Oatp58Da	DRSC25499	0.867	9.63e5	9.53e5
CG11353	DRSC08182	0.201	6.66e5	8.42e5
CG11353	DRSC39681	-2.03 (active)	3.22e5	3.34e5

More records:
gene knocked down	amplicon	ATP z-score, duplicate mean	ATP luminescence, replicate 1 (RLU)	ATP luminescence, replicate 2 (RLU)
Sema1b	DRSC07550	0.968	8.69e5	7.99e5
Sema1b	DRSC27552	1.26	1.01e6	1.10e6
Syx1A	DRSC15359	2.3 (active)	4.33e5	9.34e5
Syx1A	DRSC21554	1.41	7.85e5	6.12e5
TRAM	DRSC18178	0.579	8.66e5	7.41e5
TRAM	DRSC18651	1.16	7.78e5	7.16e5
Pkd2	DRSC02962	-0.402	6.92e5	6.75e5
Pkd2	DRSC27522	0.64	7.85e5	8.74e5
Gr59f	DRSC04499	0.11	7.49e5	7.27e5
Gr59f	DRSC27044	-0.402	8.15e5	9.58e5
Osi6	DRSC12128	0.543	1.01e6	9.29e5
Osi6	DRSC25935	-1.49	6.30e5	7.02e5
CG1208	DRSC12190	0.0569	7.52e5	6.73e5
CG1208	DRSC39467	-1.42	3.83e5	3.36e5
CG9240	DRSC20177	1.27	7.92e5	8.08e5
CG17036	DRSC02564	1.88 (active)	9.08e5	9.43e5
CG17036	DRSC28145	0.332	9.54e5	1.10e6
mAChR-C	DRSC17890	0.212	7.14e5	7.71e5
mAChR-C	DRSC27441	-1.2	9.35e5	9.40e5
Rh3	DRSC16822	0.0897	7.19e5	7.10e5
Tsp42El	DRSC06186	-0.554	5.71e5	8.02e5
Tsp42Ei	DRSC06189	-0.839	5.57e5	5.30e5
Tsp42Ei	DRSC26994	-0.68	8.91e5	1.02e6
Ca-alpha1T	DRSC17842	-0.46	8.15e5	8.12e5
Ca-alpha1T	DRSC18357	2.24 (active)	1.03e6	9.43e5
Ca-alpha1T	DRSC21430	1.34	7.19e5	6.68e5
Tsp74F	DRSC10508	0.178	9.50e5	8.90e5
Dh31-R	DRSC06669	-0.823	5.59e5	5.31e5
Dh31-R	DRSC23417	-0.333	8.04e5	7.63e5
GluRIA	DRSC11176	-0.102	9.14e5	8.52e5
